From article PMC5583172 come the findings set out here.

Protein sequences, listed by entry. Tags and fused reporters are not part of them. Lines headed by an entry give the natural chain unless they say otherwise; changes in a name come on top.
UniProt P32121, whole entry: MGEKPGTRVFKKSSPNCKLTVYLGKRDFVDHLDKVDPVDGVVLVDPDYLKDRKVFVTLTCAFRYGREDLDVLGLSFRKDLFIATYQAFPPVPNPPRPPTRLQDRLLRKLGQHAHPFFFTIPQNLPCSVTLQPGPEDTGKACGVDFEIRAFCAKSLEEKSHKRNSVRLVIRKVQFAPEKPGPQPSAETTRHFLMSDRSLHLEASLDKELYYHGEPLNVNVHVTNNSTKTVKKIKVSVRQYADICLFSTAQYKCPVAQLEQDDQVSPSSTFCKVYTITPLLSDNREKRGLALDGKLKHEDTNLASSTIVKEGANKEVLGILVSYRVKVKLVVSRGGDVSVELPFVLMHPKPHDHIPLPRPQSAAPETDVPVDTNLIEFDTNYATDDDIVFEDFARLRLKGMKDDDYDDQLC

Assay [1] has as its target Rluc8-MOR (UniProt P35372). Briefly: FRET or BRET; BRET1 in HEK293 cells stably expressing eYFP-beta-arrestin-2 and transfected with Rluc8-MOR; cells activated 5 to 10 min with DAMGO, fentanyl or morphine at 37 °C; ratio of buffer-treated cells subtracted, normalised to maximal DAMGO effect.
For assay [2], the target named is Rluc8-MOR (UniProt P35372). Briefly: condition: only cells activated with M3G (not with DAMGO, fentanyl or morphine); FRET or BRET; BRET1 in HEK293 cells stably expressing eYFP-beta-arrestin-2 and transfected with Rluc8-MOR; cells activated 5 to 10 min with M3G at 37 °C; ratio of buffer-treated cells subtracted, normalised to maximal DAMGO effect. In general terms: BRET reads energy transfer from a luciferase to a nearby fluorophore.

These are yes or no findings as the source states them, for the method shown. Binding seen in cells or lysates may run through a third protein. Some results given as binding are weak or reduced against the parent protein; the word gives no strength.

“eYFP-tagged beta-arrestin-2 (from UniProt P32121 1-409)”: the binding entry is reported as “binds” in assay [1] and “no binding” in assay [2].
